These results are taken from the odorant receptor screen of Mainland et al. (2015).

Test in all cases: odorant receptor activation (CRE luciferase / Renilla) (fold of no-odor wells); higher = more activation
Holding throughout (conditions): 100 µM

Assay [1] has as its system OR14L1 clone 1029.
The subject of assay [2] is OR1A1 P285S clone 1531.
Assay [3] deals with OR1A1 R128H clone 1528.
Assay [4] concerns OR1A1 V233M clone 1287.
For assay [5], the system named is OR1A1 V233M clone 1530.
Assay [6] deals with OR1A1 clone 1529.
For assay [7], the system named is OR1A2 clone 1158.
The subject of assay [8] is OR1C1 clone 1044.
The subject of assay [9] is OR1D2 clone 1376.
The test system of assay [10] is OR1D5 clone 1289.
Assay [11] deals with OR1E1 clone 1257.
Assay [12] concerns OR1E2 C27R clone 1447.
Assay [13] deals with OR1E2 clone 1517.
Assay [14] deals with OR1F1 F75S clone 1281.
The subject of assay [15] is OR1G1 clone 1488.
Assay [16] deals with OR1I1 P139R/Y252S clone 1468.
The subject of assay [17] is OR1E1 clone 1546.
Assay [18] deals with OR1D5 clone 1692.
The subject of assay [19] is OR1F12 clone 1694.
The test system of assay [20] is OR1J1 clone 1696.

The structures appear in SMILES notation. “And” between values parts separate entries of the source, which are not always exact repeats. Identical values can stand only once. The list shows a part of the results. Single wells; the ratio to wells without odorant was worked out here, and repeats agree poorly.

Turning to `O=C1CCCCC1` [Cyclohexanone], the odorant receptor activation was 0.713 in assay [1]; 0.596 and 1.15 in assay [2]; 0.614 and 0.844 in assay [3]; 0.454 in assay [4]; 0.803 and 0.909 in assay [5]; 0.311 and 0.926 in assay [6]. Further, the odorant receptor activation in assay [7] was determined as 0.927; in assay [8], 1.35; in assay [9], 0.9; in [10], 0.656; in assay [11] it was 0.386; in assay [12] it was 0.74. Moreover, the odorant receptor activation in assay [13] was 1.24 and 0.781; in assay [14], 0.367; in [15], 0.584 and 0.764; in assay [16] it was 1.18 and 0.504.

With `CC(C)(C)c1ccc(CCC=O)cc1` [bourgeonal], the odorant receptor activation in [1] stood at 0.879; in assay [2], 1.47; in assay [3], 1.32; in [4] it was 1.31; in assay [5] it was 1.63; in [6], 1.61. The odorant receptor activation in assay [7] was found to be 0.613; in [8] it was 0.805; in assay [9], 0.161; in assay [10], 0.76; in assay [11], 0.919; in assay [17] it was 0.639. For the same compound, the odorant receptor activation in assay [12] came to 0.116; in assay [13], 0.99; in assay [14], 0.933; in assay [15] it was 1.01; in [16] it was 1.18.

On to `C=CCc1ccc(OC(C)=O)c(OC)c1` [eugenol acetate], for which the odorant receptor activation was 1.64 in [1]; 2.05 in [2]; 2.53 in [3]; 2.3 in [5]; 2.44 in assay [6]; 1.89 in [7]. The odorant receptor activation turned out to be 1.83 in assay [8]; 1.56 in assay [9]; 2.14 in assay [10]; 1.5 in assay [18]; 1.69 in [11]; 1.71 in assay [17]. Besides, the odorant receptor activation in assay [12] came out at 1.37; in assay [13], 1.88; in [14] it was 1.6; in [19] it was 1.4; in [15], 1.33; in assay [16] it was 1.71. This compound also returned an odorant receptor activation in assay [20] of 2.34.

With `CC1COCc2cc3c(cc21)C(C)(C)C(C)C3(C)C` (configuration not stated) [galaxolide], the odorant receptor activation in assay [1] was 10.5; in [3], 5.69 and 5.53; in assay [5], 4.63 and 4.04; in assay [6] it was 2.59 and 4.21; in assay [7] it was 0.788; in assay [8], 3.78. For the same compound, the odorant receptor activation in assay [9] was 4.73; in [11] it was 1.13 and 1.43; in [12], 2.94; in [13], 5.58 and 4.18; in assay [14] it was 0.988 and 2.92; in assay [19], 3.33 and 1.2. For the same compound, the odorant receptor activation in assay [16] was 2.04 and 4.74.

For `CC(=O)OCC=C(C)CCC=C(C)C` [geranyl acetate], the odorant receptor activation in assay [1] is 1.5; in assay [2], 0.732 and 1.97; in [3] it was 1.43 and 2.24; in assay [4], 2.82 and 1.09 and 1.85; in assay [5] it was 3.47 and 2.8; in [6] it was 2.19 and 2.55. For the same compound, the odorant receptor activation in [7] is 0.788; in assay [8] it was 1.28; in assay [9], 1.69; in assay [10] it was 0.965 and 1.17; in assay [18], 1.45; in assay [11], 0.864 and 1.17. The odorant receptor activation was 1.11 and 1.55 in assay [17]; 0.982 in [12]; 0.758 and 1.49 in assay [13]; 0.992 and 1.28 in assay [14]; 1.25 in assay [19]; 1.01 and 1.67 in [15]. In addition, the odorant receptor activation in [16] was 1.02 and 1.62; in assay [20], 1.13.

As for `C=CCc1ccc(O)c(OC)c1` [eugenol], the odorant receptor activation in assay [1] was 1.54 and 2.02; in assay [3] it was 1.03 and 1.33 and 1.47; in assay [4], 4.91 and 2.7 and 2.19; in assay [6], 1.46 and 2.12 and 1.69; in [7], 1.91 and 1.37; in assay [8], 1.09 and 1.4. The odorant receptor activation in assay [9] is 1.44 and 1.51; in [10] it was 3.19 and 1.51; in assay [18], 1.3; in [11], 0.975 and 1.29; in assay [17], 1.32; in assay [12], 1.42 and 1.32. The odorant receptor activation in assay [13] is 1.91 and 1.09 and 1.56; in assay [14] it was 2.44 and 1.29; in assay [19] it was 0.934; in assay [15], 1.48 and 1.33 and 1.11; in assay [16] it was 1.23 and 0.551 and 1.06; in [20], 0.82.

Consider `CCCCO` [1-butanol], for which the odorant receptor activation in assay [1] came to 2.59; in [2] it was 0.862; in [3] it was 1.23; in assay [5], 1.42; in assay [6], 1.18; in assay [7], 0.864. Further, the odorant receptor activation in assay [8] was 3.34; in [9], 0.817; in assay [10], 0.908; in assay [18] it was 1.06; in assay [11] it was 1.52; in assay [17], 1.24. Besides, the odorant receptor activation in [12] came to 0.795; in assay [13], 1.14; in assay [14] it was 0.613; in [19], 0.9; in assay [15] it was 1.32; in assay [16], 1.03. Also, the odorant receptor activation in assay [20] was determined as 0.938.
